No constants are given. Whether binding was seen depends on the method and setting. In cells and extracts the contact can be indirect. Some results given as binding are weak or reduced against the parent protein; the word gives no strength.
Legend:
[1] = molecular target: insulin receptor (human (endogenous in MCF7)) (UniProt P06213); test: co-IP; total (500 ug), cytoplasmic (100 ug) and nuclear (100 ug) extracts diluted 1:2 with 1% Triton X-100, 150 mM NaCl, 20 mM Tris pH 7.5; immunoprecipitated with anti-INSR beta-subunit or anti-IGF1R beta-subunit overnight at 4°C, protein A/G-agarose 2 h; blotted with anti-p53; IgG as control
[2] = molecular target: insulin-like growth factor-1 receptor (human (endogenous in MCF7)) (UniProt P08069); test: as above

binding [1]: binds | binding [2]: binds
Substance: Tumor suppressor p53 (from UniProt P04637 1-393)

Reference: paper PMC7321701
